# PubChem BioAssay AID504467 (National Center for Advancing Translational Sciences (NCATS), 2011)
# Out of some 330,000 compounds screened, about 7,700 (2.3%) were called active. Inconclusive results, whose numbers are uncertain, are shown with a selection of clear calls. Calls come from the whole dose curve; as a rule, active = well fitted inhibition curve with a large enough effect; inconclusive = small, poorly fitted or top-dose-only effect, or effect the other way; inactive = flat fitted curve, though single readings scatter. A potency beside an inconclusive call is a rough fit, not a confirmed value.
# Experiment: qHTS screen for small molecules that inhibit ELG1-dependent DNA repair in human embryonic kidney (HEK293T) cells expressing luciferase-tagged ELG1; note: nearly all actives have a fitted effect of over 55% in size
# Conditions: HEK293T ELG1-luciferase reporter, luminescence, 16 h, DNA damage induced by 5-fluorouridine; series mostly up to 46.1 µM
# Summary of the method: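 In this reporter screen, reduction of luminescence relative to DMSO vehicle indicated activity. Compounds and 5-fluorouridine were added together to 2,000 cells per well, incubated for 16 hr at 37 °C, then developed with ONE-Glo.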
# Potency is the fitted concentration of half-maximal effect.
row,Compound,Potency
1,COc1ccc(-c2coc3cc(O)cc(O)c3c2=O)cc1,"inconclusive: 7.31 µM [activator, partial curve]"
2,Cc1ccc2nc(-c3ccc(SCC(=O)Nc4cc(C)on4)nc3)[nH]c2c1,"inconclusive: 2.31 µM [activator, partial curve]"
3,O=C(Cn1cnc2c(nnn2Cc2ccc(Cl)cc2)c1=O)NCc1ccco1,"inconclusive: 20.6 µM [inhibitor, single point]"
4,Cc1onc(-c2c(F)cccc2Cl)c1-c1nnc(-c2cccc3ccccc23)o1,"inconclusive: 29.1 µM [activator, single point]"
5,Clc1ccc(-c2c[n+](Cc3ccc(Br)cc3)c3n2CCCCC3)cc1,"inconclusive: 14.6 µM [inhibitor, partial curve]"
6,O=C(c1cccc(Cl)c1)c1nn(-c2ccccc2)c(=O)cc1C(F)(F)F,"inconclusive: 23.1 µM [inhibitor, single point]"
7,N#Cc1ccc(NC(=O)CCc2ccc(S(=O)(=O)N3CCOCC3)cc2)cc1,"inconclusive: 23.1 µM [inhibitor, single point]"
8,COc1ccc(SC[C@H](C)CN2CC[C@H](C(C)(C)C)CCC2=O)cc1,inactive
9,CC1CC(C)CN(C(=O)COc2cccnc2[N+](=O)[O-])C1 (stereo not given),"inconclusive: 13 µM [activator, partial curve, poor fit]"
10,Cc1cccc(C)c1NC(=O)/C(C#N)=C/c1ccsc1,inactive
11,COCC(=O)n1nc(-c2ccccc2)nc1NCc1ccc(N(C)C)cc1,"inconclusive: 20.6 µM [activator, partial curve]"
12,NC(=O)NC(CC(=O)OCC(=O)NC(=O)NCc1ccco1)c1ccc(Cl)cc1 (stereo not given),"inconclusive: 29.1 µM [inhibitor, single point]"
13,Cc1c(C)n2c(SCC(=O)NCc3ccc4c(c3)OCO4)nnc2[nH]c1=O,inactive
14,O=C(CCCN1C(=O)c2cccc3cccc(c23)C1=O)N1CCN(Cc2ccc3c(c2)OCO3)CC1,active: 2.31 µM
15,O=C(N/N=C/c1ccc(-c2ccccc2[N+](=O)[O-])o1)c1cccnc1,inactive
16,CN(C)c1ccc(C(C#N)c2ccccc2)nn1 (stereo not given),"inconclusive: 3.26 µM [activator, partial curve, poor fit]"
17,COc1ccc(NC(=O)c2cc(C)on2)cc1,"inconclusive: 11.6 µM [activator, partial curve]"
18,Cc1ccc(CSC2=Nc3ccccc3C3=NC(=O)CN23)cc1,inactive
19,CCCCSc1nc2c(cc1C#N)CCC2,"inconclusive: 16.4 µM [activator, partial curve]"
20,COc1cc(C(=O)OCCCc2cc3ccccc3c(=O)o2)cc(OC)c1OC,"inconclusive: 14.6 µM [inhibitor, partial curve, poor fit]"
21,COc1cc(/C=C2\CCCc3c2nc2ccccc2c3C(=O)O)cc([N+](=O)[O-])c1O,inactive
22,CC(=O)Nc1ccc(S(=O)(=O)N2CCN(S(=O)(=O)N3CCC(C)CC3)CC2)cc1,inactive
23,COc1ccc(CNc2ccc(C)cc2)cc1Br,"inconclusive: 32.6 µM [activator, single point]"
24,COc1ccc(Nc2ncccc2C(=O)O)cc1,"inconclusive: 14.6 µM [activator, partial curve]"

row,Compound,Potency
1,N#C/C(=C\c1ccc(-c2ccc(C(=O)O)cc2)o1)C(=O)Nc1ccc(F)cc1,inactive
2,Cc1ccccc1C(=O)O/N=C(\N)Cc1cccs1,"inconclusive: 14.6 µM [activator, partial curve]"
3,COc1ccccc1N=c1oc2cc(O)ccc2cc1C(N)=O,"inconclusive: 16.4 µM [inhibitor, partial curve]"
4,CC(CCc1ccccc1)NC(=S)NC1CCCCC1 (stereo not given),"inconclusive: 25.9 µM [inhibitor, single point]"
5,COc1ccc(CNS(=O)(=O)c2cc3c(cc2Cl)NC(=O)CO3)cc1,inactive
6,CCOc1ccc(NC(=O)c2ccc(NC(=O)c3cn4c5c(c(N6CCN(C)CC6)c(F)cc5c3=O)OCC4C)cc2)cc1 (stereo not given),inactive
7,NS(=O)(=O)c1ccc2nc(-c3ccccc3)c(-c3ccccc3)nc2c1,inactive
8,COc1ccccc1N(CC(O)Cn1ccnc1C)S(=O)(=O)c1ccccc1 (stereo not given),inactive
9,CC(=O)c1cccc(NC(=O)COc2ccccc2)c1,"inconclusive: 20.6 µM [activator, single point]"
10,Cc1sc(NC(=O)COc2ccccc2)c(C#N)c1-c1ccccc1,"inconclusive: 6.51 µM [activator, partial curve, poor fit]"
11,CN(C)CCCN(C(=O)c1ccc(S(=O)(=O)N2CCOCC2)cc1)c1nc2ccc(F)cc2s1,"inconclusive: 29.1 µM [activator, single point]"
12,COc1cc(/C=N/NC(=S)NC(C)C)ccc1OCC(=O)Nc1c(C)cc(C)cc1C,"inconclusive: 4.11 µM [inhibitor, full curve]"
13,CS(=O)(=O)NNC(=O)C1Cc2c(ccc3ccccc23)O1 (stereo not given),inactive
14,CCCn1c(=O)n(C)c(=O)c2c(SCC(=O)Nc3cc(C)on3)nc(C(C)(C)C)nc21,active: 8.2 µM
15,CC(C)(C)C(=O)COC(=O)c1ccccc1O,inactive
16,COc1ccc(OCC(=O)Nc2cc(NC(=O)c3ccco3)ccc2OC)cc1,"inconclusive: 23.1 µM [inhibitor, single point]"
17,CCc1cccc(NC(=O)CN2C(=O)NC3(CCCCCCC3)C2=O)c1,inactive
18,Cc1nn2c(NC(C)C)c3c(nc2c1-c1ccccc1)CCC3,inactive
19,COc1ccccc1-c1nnc(Sc2nc([N+](=O)[O-])nn2C)o1,"inconclusive: 18.4 µM [inhibitor, partial curve]"
20,COc1ccc(S(=O)(=O)N2CCc3ccccc32)cc1C(=O)Nc1ccc(C(N)=O)cc1,"inconclusive: 16.4 µM [inhibitor, single point]"
21,CCOCCCNC(=O)C1CCN(Cc2ccc(OCc3ccccc3)c(OC)c2)CC1,"inconclusive: 18.3 µM [activator, partial curve]"
22,COC(=O)c1c(C(=O)OC)c2cccc3cc(-c4ccccc4)c4ccc1c4n32,"inconclusive: 29.1 µM [activator, partial curve, poor fit]"
23,CC(=O)c1ccc(-c2cccc([C@H]3[C@@H]4C=CC[C@@H](C)[C@@H]4C(=O)N3Cc3ccccc3)c2)cc1,"inconclusive: 29.1 µM [inhibitor, single point]"
24,CCc1nnc(NC(=O)C2(C)COC(c3ccccc3)OC2)s1 (stereo not given),"inconclusive: 20.6 µM [activator, partial curve]"

row,Compound,Potency
1,CCN(c1ccccc1)S(=O)(=O)c1ccc(OC)c(NC(=O)c2cccs2)c1,"inconclusive: 23.1 µM [inhibitor, single point]"
2,COc1ccc(-c2oc3ccc(-c4cc(OC)c(OC)c(OC)c4)cc3c2C#Cc2ccsc2)cc1,inactive
3,COc1ccc(C(CNC(=O)CCNS(=O)(=O)c2ccc(Br)cc2)N2CCCC2)cc1 (stereo not given),"inconclusive: 1.16 µM [inhibitor, single point]"
4,COc1ccc(F)c(CN2CCN(CCc3ccccc3)C(CCO)C2)c1 (stereo not given),"inconclusive: 20.6 µM [inhibitor, partial curve, poor fit]"
5,Clc1ccc(OCc2nn3c(C4CCCCC4)nnc3s2)c(Cl)c1,inactive
6,COc1ccc(-c2csc(NC(=O)c3ccc(S(C)(=O)=O)cc3)n2)cc1,"inconclusive: 16.4 µM [activator, single point]"
7,CC(=O)Nc1ccc(S(=O)(=O)N2CCN(c3ncccn3)CC2)cc1,inactive
8,O=C(NC(=S)Nc1nc(-c2ccc(Br)cc2)cs1)c1cccnc1,"inconclusive: 16.4 µM [activator, partial curve, poor fit]"
9,COc1cc([C@H]2OC[C@H]3[C@@H]2CO[C@@H]3c2ccc(O[C@H]3O[C@H](CO)[C@@H](O)[C@H](O)[C@H]3O)c(OC)c2)ccc1O[C@@H]1O[C@H](CO)[C@@H](O)[C@H](O)[C@H]1O,"inconclusive: 18.3 µM [activator, partial curve, poor fit]"
10,O=[N+]([O-])c1ccc(/C=N/N/C(=N/c2ccccn2)c2ccccn2)cc1,"inconclusive: 23.1 µM [activator, partial curve, poor fit]"
11,COc1ccccc1NC(=S)NCc1ccccc1,inactive
12,CCOC(=O)c1c(C)[nH]c(C(=O)OCC(=O)c2ccc3c(c2)NC(=O)CO3)c1C,inactive
13,COc1ccccc1Nc1nc(Cl)c(C=O)s1,inactive
14,Clc1ncccc1-c1nc2ccccc2s1,"inconclusive: 18.3 µM [activator, partial curve]"
15,COc1ccccc1OCC(=O)Nc1cc(S(=O)(=O)N2CCCCC2)ccc1N1CCCCC1,inactive
16,COc1ccc(NC(=O)C2CCCN2C(=O)Nc2ccc(OC)cc2)cc1 (stereo not given),inactive
17,O=C(Cn1cc(SCc2ccc(Cl)cc2)c2ccccc21)N1CCOCC1,"inconclusive: 20.6 µM [activator, partial curve]"
18,C/C(=N\OC(=O)c1ccccc1F)c1nccs1,inactive
19,COCCN(CCOC)S(=O)(=O)c1ccc(C(=O)NC2CCN(Cc3ccccc3)CC2)cc1,"inconclusive: 18.4 µM [inhibitor, partial curve]"
20,COc1ccccc1OCCSc1nc2ccccc2c(=O)[nH]1,"inconclusive: 23.1 µM [activator, single point]"
21,COC(=O)c1c(-c2ccccc2)c[nH]c1C,"inconclusive: 13 µM [activator, partial curve]"
22,O=C(C[n+]1ccc(/C=N/O)cc1)NC1CCCCC1,inactive
